# In PubChem BioAssay AID2551 (National Center for Advancing Translational Sciences (NCATS), 2010):
# The chains behind the UniProt entries cited, without tags or fusion partners. Where a name states a change or a piece, a line headed by the entry shows the natural chain unless it says otherwise.
# UniProt P51450: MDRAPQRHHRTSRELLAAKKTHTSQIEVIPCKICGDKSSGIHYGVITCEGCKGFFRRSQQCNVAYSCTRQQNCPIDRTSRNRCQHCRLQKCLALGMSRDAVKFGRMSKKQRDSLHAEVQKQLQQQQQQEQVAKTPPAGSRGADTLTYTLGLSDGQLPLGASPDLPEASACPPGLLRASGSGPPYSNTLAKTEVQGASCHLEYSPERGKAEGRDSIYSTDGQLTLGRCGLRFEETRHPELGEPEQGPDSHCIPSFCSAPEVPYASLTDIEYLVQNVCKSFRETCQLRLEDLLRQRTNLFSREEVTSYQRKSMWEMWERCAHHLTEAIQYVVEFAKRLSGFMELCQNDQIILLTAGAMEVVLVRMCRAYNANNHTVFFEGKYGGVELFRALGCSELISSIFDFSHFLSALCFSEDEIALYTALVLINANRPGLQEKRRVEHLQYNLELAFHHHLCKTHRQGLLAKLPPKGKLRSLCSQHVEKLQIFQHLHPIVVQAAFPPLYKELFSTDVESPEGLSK
# The whole screen tested about 310,000 compounds, of which about 17,000 (5.5%) were called active. The shares of active, inactive and inconclusive entries below differ from those in the screen. The call rests on the fitted dose curve; in most records, active means well fitted inhibition curve with a large enough effect; inconclusive means small, poorly fitted or top-dose-only effect, or effect the other way; inactive means no such curve, though single readings can be large or run the other way. Potencies of inconclusive entries are doubtful fits and often do not repeat.
# Molecular target: Nuclear receptor ROR-gamma (Mus musculus) (UniProt P51450)
# Test: qHTS for inhibitors of ROR gamma transcriptional activity; further: nearly all actives have a fitted effect of over 60% in size
# Conditions: Drosophila S2 Gal4-RORgamma UAS-luciferase reporter, 20 h; activity change, negative = inhibition: at 53.6 µM (top of the series)
# Outline: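 Drosophila S2 cells stably expressing Gal4-DBD/mouse RORγ fusion under metallothionein promoter plus UAS-luciferase; compound 1 h, then 700 uM CuSO4 induction for 20 h at ambient temperature; inhibition read as reduced luminescence.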
# On the % scale 0 is the no-effect control and ±100 the full control effect; potency means the concentration at half of the fitted maximal effect.
SMILES,"activity change, negative = inhibition",Potency
COc1ccc(-c2c(C#N)c(N)nc3c2c(=O)n(C)c(=O)n3C)cc1,inactive: 12.6%,–
CCn1c(/N=C/c2ccc(OC)cc2O)nc2ccccc21,–,active: 20 µM
O=C(N/N=C/c1cccs1)c1ccc2ncccc2c1,–,active: 11.2 µM
O=C1CN(C(=O)COC(=O)c2ccc(N3CCCCCC3)c([N+](=O)[O-])c2)c2ccccc2N1,–,"inconclusive: 2 µM [activator, full curve]"
CCN=c1scc(-c2ccccc2)n1/N=C/c1ccccn1,–,active: 4.47 µM
CCn1cc(C(=O)NCCC2=CCCCC2)c(=O)c2cc(S(=O)(=O)N(C)C)ccc21,–,"inconclusive: 11.2 µM [activator, partial curve, poor fit]"
CC12CCC(C(=O)Nc3cc(Cl)ccc3Cl)(C(Br)C1=O)C2(C)C (configuration not stated),–,"inconclusive: 20 µM [activator, single point]"
CCCn1c(NCc2ccco2)nc2c1c(=O)n(C)c(=O)n2C,–,"inconclusive: 35.5 µM [activator, single point]"
COC(CNC(=O)c1ccc2c(=O)n(Cc3ccc(Cl)cc3)c(=S)[nH]c2c1)OC,–,"inconclusive: 11.2 µM [inhibitor, partial curve, poor fit]"
CC(C)c1cc(C(N)=O)c(NC(=O)c2cccc(COc3ccc(Br)cc3)c2)s1,–,"inconclusive: 0.251 µM [activator, partial curve, poor fit]"
CCOc1ccc2[nH]c(=O)c(CN(Cc3ccco3)C(=O)c3cccc(F)c3)cc2c1,inactive: -3.53%,–
COC(=O)c1sccc1NC(=O)Nc1cccc(C)c1,inactive: 18.3%,–
Cc1cc(C(=O)NNC(=O)/C=C/c2ccc(F)cc2)c(C)o1,inactive: -36.7%,–
CN(C)c1nc2sc3c(c2c(=O)n1C)CC(C)(C)OC3,–,"inconclusive: 12.6 µM [activator, partial curve]"
CCn1c(=O)n(-c2ccc(Cl)cc2)c(=O)c2c3c(sc21)COC(C)(C)C3,inactive: 11.8%,–
CC1CCN(c2ccc(NC(=O)c3ccc(Br)o3)cc2)CC1,inactive: -21.4%,–
O=S(=O)(NCCN1CCOCC1)c1ccc(Oc2ccccc2Cl)cc1,–,"inconclusive: 11.2 µM [activator, single point]"
C=C(C)CNC(=S)NN=C1c2ccccc2-c2ccccc21,–,active: 3.16 µM
CCCN1CCc2c(sc(NC(=O)c3ccc(S(=O)(=O)N4CCN(C(=O)OCC)CC4)cc3)c2C(N)=O)C1,–,"inconclusive: 35.5 µM [inhibitor, single point]"
O=C(Nc1nnc(-c2ccc3c(c2)CCCC3)o1)C1CCCCC1,–,"inconclusive: 3.55 µM [inhibitor, full curve]"
CCCn1c2ccc(F)cc2c2nnc(SCCN3CCOCC3)nc21,–,"inconclusive: 35.5 µM [inhibitor, single point]"
CCN1C(=O)c2ccccc2Sc2ccc(C(=O)NCCC(C)C)cc21,inactive: 18.8%,–
CN(CC(=O)Nc1ccccc1C(=O)N1CCCC1)S(=O)(=O)c1ccc(Br)cc1,–,"inconclusive: 14.1 µM [activator, partial curve, poor fit]"
COc1cc(CNc2ccc3[nH]c(=O)[nH]c3c2)cc(Br)c1OCc1ccc(F)cc1,–,"inconclusive: 35.5 µM [inhibitor, single point]"
CCN(C(=O)c1cc(S(=O)(=O)N2CCOCC2)cn1C)c1cccc(C)c1,inactive: -40%,–
O=C(Cn1c(C(=O)OCCO)cc2ccccc21)c1ccccc1,inactive: -0.801%,–

SMILES,"activity change, negative = inhibition",Potency
COc1ccccc1CN1CCC2(CC1)CCN(C(=O)c1ccncc1)CC2,inactive: -31%,–
CCc1nnc(N/N=C/c2ccccc2F)n1N,–,active: 11.2 µM
C=CCn1c(SCCOc2ccccc2)nnc1C(C)NC(=O)c1ccccc1 (configuration not stated),–,"inconclusive: 6.31 µM [inhibitor, single point]"
COCc1c(C(=O)N/N=C\c2cccs2)nnn1-c1nonc1N,–,"inconclusive: 17.8 µM [inhibitor, partial curve, poor fit]"
Cn1cc(C(F)(F)F)nc1-c1ccc(OCC(O)CNCCOc2ccc(O)c(C(N)=O)c2)cc1 (configuration not stated),inactive: -4.44%,–
O=C(COc1ccccc1)NNc1nc2c(F)cccc2s1,–,active: 5.01 µM
Cc1oc(-c2cc3c(cc2Cl)OCO3)nc1CN1CCCC1c1ccc(F)cc1 (configuration not stated),–,"inconclusive: 15.8 µM [inhibitor, partial curve, poor fit]"
CC1CC(C)CN(C(=O)C2CCN(S(=O)(=O)c3cccc4cccnc34)CC2)C1 (configuration not stated),inactive: 4%,–
COc1ccc(-c2nnc3sc(-c4ccco4)nn23)cc1OC,inactive: -9.92%,–
COc1ccc(N2C(=O)CC(n3c(CCCCO)nc4ccccc43)C2=O)cc1 (configuration not stated),inactive: -43.2%,–
CCCN1C(=O)C(Cc2nc3ccccc3c(=O)n2C)c2ccccc21 (configuration not stated),inactive: 7.82%,–
Cc1nn(-c2ccccc2Cl)c(Cl)c1/C=C(\C#N)C(N)=O,–,"inconclusive: 35.5 µM [activator, single point]"
O=C(NNC(=O)c1cccc2ccccc12)c1ccccc1O,inactive: -0.816%,–
Fc1cc(F)cc(NC(=S)N2CCC(c3ccccc3)C2)c1 (configuration not stated),–,"inconclusive: 35.5 µM [inhibitor, single point]"
O=C(CCC(=O)N1CCN(S(=O)(=O)c2ccc(Cl)cc2)CC1)Nc1ccc2ccccc2c1,–,"inconclusive: 15.8 µM [activator, single point]"
CCOc1ccc(-n2nnnc2SCC(=O)NC2CCCC2)cc1,–,"inconclusive: 20 µM [activator, single point]"
O=C(N/N=C/c1ccc[nH]1)c1ccc2c(c1)OCO2,–,"inconclusive: 25.1 µM [inhibitor, single point]"
CCCCC1CCC(c2ccc(C(N)=O)cc2)CC1 (configuration not stated),inactive: 18.5%,–
CC1=NN(C(=O)Cc2ccc(C)cc2)C(O)(c2cccnc2)C1 (configuration not stated),–,active: 8.91 µM
N#Cc1cc2c([nH]c1=S)CCCCCC2,–,active: 7.08 µM
O=C(CS(=O)(=O)c1cn(Cc2ccccc2Cl)c2ccccc12)N1CCOCC1,–,"inconclusive: 11.2 µM [activator, partial curve]"
CCCc1nc(SCC(=O)NNC(=O)C2CCCCC2)c2ccccc2n1,inactive: -21.5%,–
O=C(NCCSCc1ccco1)Nc1ccc(Cl)cc1,–,"inconclusive: 12.6 µM [activator, partial curve]"
COC(=O)c1c(NC(=O)CN2CCC3(O)CCCCC3C2c2cc(OC)ccc2OC)sc(C)c1C (configuration not stated),–,"inconclusive: 35.5 µM [activator, single point]"
CCOC(=O)c1nc(-c2ccc(OC)c(OC)c2)cnc1C#N,–,"inconclusive: 17.8 µM [activator, single point]"
COc1ccc(-c2csc(N(CCCN(C)C)C(=O)c3ccccc3C)n2)cc1,–,"inconclusive: 0.447 µM [inhibitor, full curve]"

# 15 entries from above, arranged by length of the SMILES, largest number first:
SMILES,"activity change, negative = inhibition",Potency
Cn1cc(C(F)(F)F)nc1-c1ccc(OCC(O)CNCCOc2ccc(O)c(C(N)=O)c2)cc1 (configuration not stated),inactive: -4.44%,–
O=C(CCC(=O)N1CCN(S(=O)(=O)c2ccc(Cl)cc2)CC1)Nc1ccc2ccccc2c1,–,"inconclusive: 15.8 µM [activator, single point]"
CC1CC(C)CN(C(=O)C2CCN(S(=O)(=O)c3cccc4cccnc34)CC2)C1 (configuration not stated),inactive: 4%,–
COc1ccc(N2C(=O)CC(n3c(CCCCO)nc4ccccc43)C2=O)cc1 (configuration not stated),inactive: -43.2%,–
C=CCn1c(SCCOc2ccccc2)nnc1C(C)NC(=O)c1ccccc1 (configuration not stated),–,"inconclusive: 6.31 µM [inhibitor, single point]"
CCCN1C(=O)C(Cc2nc3ccccc3c(=O)n2C)c2ccccc21 (configuration not stated),inactive: 7.82%,–
Cc1nn(-c2ccccc2Cl)c(Cl)c1/C=C(\C#N)C(N)=O,–,"inconclusive: 35.5 µM [activator, single point]"
COCc1c(C(=O)N/N=C\c2cccs2)nnn1-c1nonc1N,–,"inconclusive: 17.8 µM [inhibitor, partial curve, poor fit]"
CCOC(=O)c1nc(-c2ccc(OC)c(OC)c2)cnc1C#N,–,"inconclusive: 17.8 µM [activator, single point]"
COc1ccc(-c2nnc3sc(-c4ccco4)nn23)cc1OC,inactive: -9.92%,–
O=C(N/N=C/c1ccc[nH]1)c1ccc2c(c1)OCO2,–,"inconclusive: 25.1 µM [inhibitor, single point]"
O=C(NNC(=O)c1cccc2ccccc12)c1ccccc1O,inactive: -0.816%,–
O=C(NCCSCc1ccco1)Nc1ccc(Cl)cc1,–,"inconclusive: 12.6 µM [activator, partial curve]"
CCc1nnc(N/N=C/c2ccccc2F)n1N,–,active: 11.2 µM
N#Cc1cc2c([nH]c1=S)CCCCCC2,–,active: 7.08 µM

# The list goes on:

SMILES,"activity change, negative = inhibition",Potency
COC(=O)C1(CCSC)NC(c2ccc(OC)cc2OC)C2C(=O)N(c3cccc(C(C)=O)c3)C(=O)C21 (configuration not stated),–,"inconclusive: 0.316 µM [inhibitor, full curve, poor fit]"
Cc1ccccc1CN1CCNC(=O)C1CC(=O)O (configuration not stated),–,"inconclusive: 0.0224 µM [inhibitor, full curve, poor fit]"
CC1CC(=O)NN=C1c1cccs1 (configuration not stated),–,"inconclusive: 0.631 µM [inhibitor, full curve, poor fit]"
CC(C)(C)OC(=O)N1CCC(NC(=O)c2nc[nH]c2C(=O)NCC(=O)OCc2ccccc2)CC1,–,"inconclusive: 20 µM [inhibitor, single point]"
O=C(N/N=C/c1ccco1)c1cccc(N2CCCC2=O)c1,–,"inconclusive: 35.5 µM [inhibitor, single point]"
CC(=O)N1c2ccc(Cl)cc2C2C=CCC2C1c1cccc2ccccc12 (configuration not stated),–,"inconclusive: 25.1 µM [inhibitor, single point]"
COc1ccc(-c2noc(CN3CCCCC3c3nccn3C)n2)cc1 (configuration not stated),–,active: 3.55 µM
COc1cc(CNCCc2ccc(F)cc2)ccc1OCc1ccc(Cl)nc1,–,active: 2.24 µM
CCC(C)c1ccc(C(C)NC(=S)NCc2ccc(F)cc2)cc1 (configuration not stated),–,active: 2.82 µM
O=C(NCc1ccc2c(c1)OCO2)C1CCCN(S(=O)(=O)c2cccc3cccnc23)C1 (configuration not stated),inactive: 30.2%,–
O=C(CSc1ccsc1[N+](=O)[O-])NCCc1ccc(Cl)cc1,inactive: -13.9%,–
Oc1ccc(Br)cc1/C=N/Nc1ccccn1,–,active: 5.62 µM
CC(C)(C)c1cn(-c2ccc(F)cc2)c(=S)[nH]1,–,active: 8.91 µM
CN(c1ccccc1)S(=O)(=O)c1ccc(NC(=S)NC(=O)C2CC2)cc1,–,active: 11.2 µM
O=C(Nc1cccnc1)c1cc(-c2cccc(Br)c2)nc2ccccc12,inactive: 33.7%,–
O=C(/C=C\c1cn(-c2ccccc2)nc1-c1ccccc1)Nc1nccs1,–,"inconclusive: 35.5 µM [inhibitor, single point]"
c1cnn(-c2nc(N3CCOCC3)nc(N3CCOCC3)n2)c1,inactive: -27.8%,–
Cc1cccnc1NC(=S)NC(=O)c1oc2ccccc2c1C,–,active: 2 µM
CC(C)=CCc1c2c(c3occ(-c4ccc(O)c(O)c4)c(=O)c3c1O)C=CC(C)(C)O2,–,"inconclusive: 35.5 µM [inhibitor, single point]"
CCC(=O)N1CCN(c2ccc(NC(=S)NC(=O)c3cc4ccccc4o3)cc2)CC1,–,active: 12.6 µM
COc1ccc(-c2[nH]ncc2-c2cnn(-c3ccccc3)c2)c(O)c1,–,"inconclusive: 15.8 µM [inhibitor, single point]"
Cc1ccc(C(=O)N/N=C/C=C/c2ccccc2)cc1,–,active: 3.16 µM
COc1ccccc1N1CCN(C2CCCN(S(=O)(=O)c3ccccc3)C2)CC1 (configuration not stated),inactive: -1.3%,–
CSc1nc(N2CCOCC2)c2c(c1C#N)CC(C)(C)OC2,inactive: 1.85%,–
O=C(CCc1ccc(Oc2cc([N+](=O)[O-])cc([N+](=O)[O-])c2)cc1)Nc1cccc(Cl)c1,–,"inconclusive: 10 µM [activator, partial curve, poor fit]"
